This is an account of results in publication PMC5386388.

Protein sequences, listed by entry. Tags and fused reporters are not part of them. Lines headed by an entry give the natural chain unless they say otherwise; changes in a name come on top. Residues count along the entry.
UniProt P26599: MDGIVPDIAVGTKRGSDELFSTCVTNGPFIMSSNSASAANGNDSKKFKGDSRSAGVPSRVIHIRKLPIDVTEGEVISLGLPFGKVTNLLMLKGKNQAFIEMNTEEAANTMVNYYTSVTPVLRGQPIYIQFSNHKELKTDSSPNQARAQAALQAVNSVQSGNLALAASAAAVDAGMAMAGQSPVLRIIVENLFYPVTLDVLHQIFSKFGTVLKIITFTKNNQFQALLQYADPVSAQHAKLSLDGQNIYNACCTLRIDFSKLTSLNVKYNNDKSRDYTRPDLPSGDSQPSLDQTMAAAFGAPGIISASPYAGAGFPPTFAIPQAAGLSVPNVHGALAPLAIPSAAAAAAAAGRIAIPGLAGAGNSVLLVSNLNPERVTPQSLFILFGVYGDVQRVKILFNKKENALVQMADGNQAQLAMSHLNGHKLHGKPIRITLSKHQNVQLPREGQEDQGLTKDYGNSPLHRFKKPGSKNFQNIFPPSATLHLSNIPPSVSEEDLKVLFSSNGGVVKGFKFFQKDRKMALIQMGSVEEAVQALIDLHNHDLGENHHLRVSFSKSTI
UniProt Q9UNE7: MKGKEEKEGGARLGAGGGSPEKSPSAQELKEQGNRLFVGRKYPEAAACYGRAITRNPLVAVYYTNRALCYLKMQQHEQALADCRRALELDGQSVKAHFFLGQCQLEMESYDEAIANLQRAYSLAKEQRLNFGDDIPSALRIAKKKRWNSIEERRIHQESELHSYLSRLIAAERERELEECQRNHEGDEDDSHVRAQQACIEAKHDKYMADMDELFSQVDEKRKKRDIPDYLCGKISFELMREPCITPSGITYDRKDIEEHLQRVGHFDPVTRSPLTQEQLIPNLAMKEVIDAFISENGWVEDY
HA-CHIP-ΔTPR (128–303 amino acids): residues 128-303 of Q9UNE7

These are yes or no findings as the source states them, for the method shown. For part of these data: In cells and extracts the contact can be indirect. For part of these data: Where a sequence is shown, tags or fusion partners need not be part of it. Some binding calls cover weakened binding; strength is not graded here.

Assay [1] deals with polypyrimidine tract-binding protein (PTB) (UniProt P26599). In words: two-hybrid; pairwise test in yeast with three reporters (beta-galactosidase, ADE2, URA3); empty pGBKT7 and pGADT7 as negative control.
Assay [2] addresses T1, FLAG-DDIAS (human) (UniProt Q8IXT1).
T1 sequence: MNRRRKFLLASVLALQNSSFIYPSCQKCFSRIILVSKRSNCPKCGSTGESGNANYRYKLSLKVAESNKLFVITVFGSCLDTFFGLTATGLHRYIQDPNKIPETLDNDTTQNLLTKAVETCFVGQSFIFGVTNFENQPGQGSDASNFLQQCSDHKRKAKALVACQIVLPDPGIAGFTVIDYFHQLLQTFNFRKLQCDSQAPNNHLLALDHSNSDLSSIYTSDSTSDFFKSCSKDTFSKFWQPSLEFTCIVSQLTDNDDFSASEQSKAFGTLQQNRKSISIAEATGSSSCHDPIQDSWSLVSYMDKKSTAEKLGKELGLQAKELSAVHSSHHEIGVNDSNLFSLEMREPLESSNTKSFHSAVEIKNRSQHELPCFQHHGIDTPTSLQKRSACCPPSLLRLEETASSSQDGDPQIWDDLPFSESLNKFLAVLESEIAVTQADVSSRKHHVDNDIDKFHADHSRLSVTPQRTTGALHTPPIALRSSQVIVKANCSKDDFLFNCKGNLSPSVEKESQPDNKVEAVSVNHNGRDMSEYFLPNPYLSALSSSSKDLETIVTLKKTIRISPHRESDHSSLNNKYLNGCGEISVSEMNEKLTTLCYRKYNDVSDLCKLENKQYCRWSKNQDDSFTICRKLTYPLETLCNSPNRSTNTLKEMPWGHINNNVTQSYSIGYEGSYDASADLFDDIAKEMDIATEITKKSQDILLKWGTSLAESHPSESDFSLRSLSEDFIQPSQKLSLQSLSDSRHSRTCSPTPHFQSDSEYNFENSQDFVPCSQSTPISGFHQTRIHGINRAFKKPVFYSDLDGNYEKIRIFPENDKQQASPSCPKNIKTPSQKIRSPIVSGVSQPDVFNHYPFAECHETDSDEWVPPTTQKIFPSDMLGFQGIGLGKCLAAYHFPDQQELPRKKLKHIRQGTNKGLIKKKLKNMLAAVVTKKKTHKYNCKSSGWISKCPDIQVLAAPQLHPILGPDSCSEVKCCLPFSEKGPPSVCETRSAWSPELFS
In words: co-IP; HEK293T cells co-transfected; lysates in RIPA buffer; IP with anti-FLAG M2 affinity gel (Fig. 1g), anti-HA agarose (Fig. 1h, 2e) or anti-c-Myc agarose (Fig. 2d); some panels with siCHIP or siHSP70 knock-down and MG132.

The target of assay [3] is HA-CHIP (human) (UniProt Q9UNE7). Described as above.

On to “polypyrimidine tract-binding protein (PTB) (from UniProt P26599 1-557)”, for which the binding result in assay [1] is given as “binds”. In the case of “HA-CHIP-ΔTPR (128–303 amino acids) (from UniProt Q9UNE7-1 128-303) (domain or fragment)”, in assay [2], the binding result was “no binding”.

B1: FLAG-DDIAS domain M (aa 401–600) (domain or fragment, UniProt Q8IXT1 401-600)
chain: TASSSQDGDPQIWDDLPFSESLNKFLAVLESEIAVTQADVSSRKHHVDNDIDKFHADHSRLSVTPQRTTGALHTPPIALRSSQVIVKANCSKDDFLFNCKGNLSPSVEKESQPDNKVEAVSVNHNGRDMSEYFLPNPYLSALSSSSKDLETIVTLKKTIRISPHRESDHSSLNNKYLNGCGEISVSEMNEKLTTLCYRKY
Turning to B1, the binding result in assay [3] is listed as “no binding”.
